Source: the supplement of paper PMC3334620
In all, about 33,000 sequences were measured (“E-score (-0.5 to 0.5)”: median about -8e-05, highest 2% from about 0.23 on). The list shows a part of the results.

Target: T1, Nrg2 (UniProt P38082)
T1 sequence: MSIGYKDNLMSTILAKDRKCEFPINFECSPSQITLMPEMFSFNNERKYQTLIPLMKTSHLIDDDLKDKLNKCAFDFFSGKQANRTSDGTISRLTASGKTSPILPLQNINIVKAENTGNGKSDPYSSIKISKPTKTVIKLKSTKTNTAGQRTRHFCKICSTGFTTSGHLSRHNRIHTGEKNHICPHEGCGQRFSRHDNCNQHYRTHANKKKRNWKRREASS
Assay: PBM E-score (8-mer binding enrichment) (E-score (-0.5 to 0.5)); higher = stronger / more preferred TF binding
Details: protein concentration: 100 nM; construct: GST-full length
How it was run: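 Using PURExpress in vitro transcription/translation, GST-tagged yeast transcription factors were made in full-length or DNA-binding-domain form. These were applied at about 100-200 nM to double-stranded universal all-10-mer Agilent arrays, and bound protein was detected with fluorescent anti-GST. Scans were normalised with masliner before the Universal PBM Analysis Suite assigned E-scores to ungapped eight-base words pooled with their reverse complements.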

Sequence	PBM E-score
AGCTCTTA	-0.114
GGCCGCCA	0.0869
CCATCTCC	0.00532
CTAGATGC	0.0311
AGGATTCC	-0.222
AGGAACCT	0.0863
ACTCGCTC	-0.0241
ATAGGCAA	0.0271
ATGTTATA	-0.0743
CTCAGGAA	-0.0145
GATTAGGA	-0.0684
TTAAGCAA	0.0236
CTGAGACA	0.0347
AGTTTAAG	-0.125
ATCCAGTG	0.191
CCGCGTTA	0.151
ACGTCGGG	-0.115
GCCGGACA	0.0968
CTCCTGGA	-0.239
GCGCTCGA	0.186
TAATTCTA	0.0612
AGATAGTC	-0.0726

Sequence	PBM E-score
ATTCATCC	-0.0209
AAAAGGTT	-0.0724
CAGTGATC	0.0931
CCATAATA	0.201
CCCTGAGG	0.236
TCTAGAGA	-0.268
CGTATTAG	0.0345
ATGTCGGA	-0.0972
GAATTACA	0.0268
GCGGGAAA	0.0248
AGATCGAA	0.0979
CTCTCGCC	-0.21
GGCTGAAA	0.0394
AGTGGCCG	-0.0882
CGTGACCC	-0.0715
GTTTCTTA	-0.00106
CCCATCGC	-0.0174
ACGGTTAT	-0.12
CAATGAGA	-0.0241
ACCGTCCT	-0.0965
CCTTGGAG	-0.0117
AGGTAGTG	-0.0967

Sequence	PBM E-score
AACGATTG	0.113
AAATTGGA	0.208
ACCAGGTA	-0.214
GAGAAACA	0.121
CGGAGGGA	-0.139
GCAGCGGC	-0.181
AAAGCCGC	-0.114
ATCCCTAA	-0.0553
CGGCCAAC	0.0106
GAGTGTGA	0.0622
CACACGTA	-0.0612
CCGTTGCG	0.0657
GCATCCCC	-0.0167
ACGTGTAG	-0.219
ACCACGTG	0.038
AACGGGAA	-0.00212
GCATACAA	0.213
ACGGCGAG	0.0517
GGACTCTA	-0.0907
ATATCGGG	0.036
TCAAATGA	-0.0989
AATGAAGT	0.23

Sequence	PBM E-score
GAATAAAA	0.0232
AGTCACCC	-0.14
CGTCGGTA	-0.343
AAACATGG	5e-05
ATGCACAA	0.221
AGGGCAGC	-0.171
ATATGATG	0.0173
GTTGTAAA	-0.129
TCCTAAGA	-0.192
GCTTGATA	0.184
ACCAGCGC	0.0159
TGTGATAA	0.067
AAGTGCAA	0.123
CACATGGA	-0.14
TGATTCAA	-0.011
CAACCGGG	-0.0115
TCGCCCAA	0.0172
ATGAATAC	0.0666
ACGCGCGG	0.192
ACAATCGA	0.019
ACAAAGTG	0.195
TATACTGA	0.261

Sequence	PBM E-score
CTCATAGA	-0.061
CGTTTGCC	0.0609
AGATAATG	-0.00061
GCCATCGC	-0.136
ATGAGGAC	-0.146
CACGCCGG	-0.0331
TGAAAAAA	0.145
ATTATTAA	0.238
GCATCACC	-0.0571
TTCCTAAA	-0.132
GGTGACAA	0.15
AGAAGTCC	-0.218
CCGGCCGG	0.165
CTGAACGC	-0.0491
CAATACGC	0.057
AGGTGAGG	0.0309
GCCCTGCC	0.129
CCCGGCAA	-0.0312
AGCGCGCT	0.187
GCTTGCCA	-0.051
TCGGCGAA	-0.0259
